No constants are given. Whether binding was seen depends on the method and setting. Some entries that bind do so weakly or less than the wild type.
Assays:
[1] = biological target: KDO5 from Flavobacterium sp. (L-lysine dioxygenase, C-4 regioselective) (Flavobacterium sp.) (UniProt J3BZS6); test: crystal structure; X-ray structures of apo forms and of complexes with L-lysine, α-KG or products obtained by soaking; four molecules in the asymmetric unit; interfaces analysed with PISA; both purified
[2] = biological target: KDO1 from Catenulispora acidiphila (L-lysine dioxygenase, C-3 regioselective) (Catenulispora acidiphila) (UniProt C7QJ42); test: as above

binding [1]	binding [2]	Binder
binds		KDO5 from Flavobacterium sp. (L-lysine dioxygenase, C-4 regioselective) (enzyme, UniProt J3BZS6 1-372, looked up, KDO5, iron(II)/alpha-ketoacid-dependent lysine dioxygenase of Flavobacterium sp; Cloned into pET-22b(+) with a hexa-histidine tail; Tetramer in solution; four molecules (two dimers) in the asymmetric unit; First ordered residue in the crystals is Ala13; also called K DiOxygenase 5; source: E. coli BL21(DE3), purified (Ni-NTA)) MKSQSIMSVERSAETSLTLEIPTSPLIIKITQQERNILSNVGNLLVKAFGNYENPDYIASLHLHAFQLLPERITRILSQFGSDFSAEQYGAIVFQGLIEVDQDDLGPTPPNWQGADYGKLNKYGFICSLLHGAVPSKPVQYYAQRKGGGLLHAVIPDEKMAATQTGSGSKTDLFVHTEDAFLSNQADFLSFLYLRNEERVPSTLYSIRSHGKMNPVMKKLFEPIYQCPKDANYNDEDVANSGPTASVLYGNRELPFIRFDAAEQIFNENAGQTSEALGNLMDFWDEAKTLINSDYIPNSGDLIFVNNHLCAHGRSAFIAGQRIENGEIIKCERRQMLRMMSKTSLIHIRSVTRTDDPYFIMEEHLGKIFDLD
	binds	KDO1 from Catenulispora acidiphila (L-lysine dioxygenase, C-3 regioselective) (enzyme, UniProt C7QJ42 1-358, looked up, KDO1, iron(II)/alpha-ketoacid-dependent lysine dioxygenase of Catenulispora acidiphila; Cloned into pET-22b(+) with a hexa-histidine tail; Dimer in solution; four molecules (two dimers) in the asymmetric unit; First ordered residue in the crystals is Glu30; also called K DiOxygenase 1; source: E. coli BL21(DE3), purified (Ni-NTA)) MKNLSAYEVYESPKTSGESRTEAVSEAAFESDPEVSAILVLTSSEASTLERVADLVTAHALYAAHDFCAQAQLAAAELPSRVVARLQEFAWGDMNEGHLLIKGLPQVRSLPPTPTSNVHAVAATTPMSRYQALINECVGRMIAYEAEGHGHTFQDMVPSAMSAHSQTSLGSAVELELHTEQAFSPLRPDFVSLACLRGDPRALTYLFSARQLVATLTTQEIAMLREPMWTTTVDESFLAEGRTFLLGFERGPIPILSGADDDPFIVFDQDLMRGISAPAQELQQTVIRAYYAERVSHCLAPGEMLLIDNRRAVHGRSIFAPRFDGADRFLSRSFIVADGSRSRHARSSFGRVVSARFS

From article PMC6224419, “Structural Studies based on two Lysine Dioxygenases with Distinct Regioselectivity Brings Insights Into Enzyme Specificity within the Clavaminate Synthase-Like Family” (Scientific Reports, 2018)
